For this assay, the target named is T1, inhibitor of apoptosis stimulating protein of p53 (iASPP) (human (endogenous in Huh-7 and Hep3B)) (UniProt Q8WUF5).
T1 sequence: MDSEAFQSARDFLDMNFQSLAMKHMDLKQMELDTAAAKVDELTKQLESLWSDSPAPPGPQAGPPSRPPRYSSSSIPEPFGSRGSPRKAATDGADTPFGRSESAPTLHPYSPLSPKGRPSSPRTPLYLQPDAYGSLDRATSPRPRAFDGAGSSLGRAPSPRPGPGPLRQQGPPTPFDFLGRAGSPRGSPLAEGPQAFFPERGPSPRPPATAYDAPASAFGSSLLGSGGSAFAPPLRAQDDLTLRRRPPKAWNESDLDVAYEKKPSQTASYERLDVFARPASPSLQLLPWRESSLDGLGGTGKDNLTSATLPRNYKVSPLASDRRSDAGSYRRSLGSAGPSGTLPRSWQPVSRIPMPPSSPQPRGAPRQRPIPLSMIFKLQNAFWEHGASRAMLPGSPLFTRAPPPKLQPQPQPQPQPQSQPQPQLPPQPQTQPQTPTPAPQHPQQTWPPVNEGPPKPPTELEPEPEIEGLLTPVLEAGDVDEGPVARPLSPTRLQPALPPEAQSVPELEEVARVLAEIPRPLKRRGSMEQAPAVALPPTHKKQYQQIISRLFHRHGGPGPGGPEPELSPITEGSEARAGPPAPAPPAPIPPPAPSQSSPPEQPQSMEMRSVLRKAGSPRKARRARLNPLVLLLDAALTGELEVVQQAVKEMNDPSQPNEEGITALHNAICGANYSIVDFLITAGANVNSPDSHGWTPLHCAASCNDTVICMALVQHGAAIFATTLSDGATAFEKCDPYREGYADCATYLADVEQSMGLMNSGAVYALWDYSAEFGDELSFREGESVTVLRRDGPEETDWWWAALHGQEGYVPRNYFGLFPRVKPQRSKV
As to the kind of experiment: co-IP; iASPP immunoprecipitated with anti-iASPP antibody from 500 ug total protein lysate of Huh-7 and Hep3B cells, with or without NT4-37AA/rAAV; Protein G Sepharose, 4°C; Western blot.

The results in this text go back to publication PMC5370002.

No constants are given. Whether binding was seen depends on the method and setting. In cells and extracts the contact can be indirect. Some binding calls cover weakened binding; strength is not graded here.

B1: p73 (protein, UniProt O15350 1-636)
chain: MAQSTATSPDGGTTFEHLWSSLEPDSTYFDLPQSSRGNNEVVGGTDSSMDVFHLEGMTTSVMAQFNLLSSTMDQMSSRAASASPYTPEHAASVPTHSPYAQPSSTFDTMSPAPVIPSNTDYPGPHHFEVTFQQSSTAKSATWTYSPLLKKLYCQIAKTCPIQIKVSTPPPPGTAIRAMPVYKKAEHVTDVVKRCPNHELGRDFNEGQSAPASHLIRVEGNNLSQYVDDPVTGRQSVVVPYEPPQVGTEFTTILYNFMCNSSCVGGMNRRPILIIITLEMRDGQVLGRRSFEGRICACPGRDRKADEDHYREQQALNESSAKNGAASKRAFKQSPPAVPALGAGVKKRRHGDEDTYYLQVRGRENFEILMKLKESLELMELVPQPLVDSYRQQQQLLQRPSHLQPPSYGPVLSPMNKVHGGMNKLPSVNQLVGQPPPHSSAATPNLGPVGPGMLNNHGHAVPANGEMSSSHSAQSMVSGSHCTPPPPYHADPSLVSFLTGLGCPNCIEYFTSQGLQSIYHLQNLTIEDLGALKIPEQYRMTIWRGLQDLKQGHDYSTAQQLLRSSNAATISIGGSGELQRQRVMEAVHFRVRHTITIPNRGGPGGGPDEWADFGFDLPDCKARKQPIKEEFTEAEIH
As to B1, the binding result is given as “binds”.
